According to PubChem BioAssay AID1570 (National Center for Advancing Translational Sciences (NCATS), 2009):
Inconclusive results, whose numbers are uncertain, are shown with a selection of clear calls. Potencies of inconclusive entries are doubtful fits and often do not repeat. Active and inactive are the calls of the source. Calls come from the whole dose curve; as a rule, active = well fitted inhibition curve with a large enough effect; inconclusive = small, poorly fitted or top-dose-only effect, or effect the other way; inactive = flat fitted curve, though single readings scatter.

By UniProt entry, the sequences of proteins in these tests, tags left out. Where a name states a change or a piece, a line headed by the entry shows the natural chain unless it says otherwise.
UniProt P10828: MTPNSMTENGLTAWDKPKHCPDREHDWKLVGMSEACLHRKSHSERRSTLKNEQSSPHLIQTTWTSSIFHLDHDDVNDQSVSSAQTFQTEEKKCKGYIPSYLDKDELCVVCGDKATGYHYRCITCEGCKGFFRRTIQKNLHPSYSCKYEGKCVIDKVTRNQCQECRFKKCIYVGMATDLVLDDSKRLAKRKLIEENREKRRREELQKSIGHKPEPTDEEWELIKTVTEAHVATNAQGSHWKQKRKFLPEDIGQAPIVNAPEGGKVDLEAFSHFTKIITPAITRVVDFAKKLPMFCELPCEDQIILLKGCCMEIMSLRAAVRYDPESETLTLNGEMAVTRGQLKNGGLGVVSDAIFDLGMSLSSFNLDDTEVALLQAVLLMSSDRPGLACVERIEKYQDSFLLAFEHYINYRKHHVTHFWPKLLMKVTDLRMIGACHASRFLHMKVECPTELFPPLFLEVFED

The compounds below were run against Thyroid hormone receptor beta (Homo sapiens) (UniProt P10828) (assay: Concentration Response Confirmation Assay for Inhibitors of the Interaction of Thyroid Hormone Receptor and Steroid Receptor Coregulator 2, Fluorescein Fluoroprobe). Conditions: TRbeta LBD / fluorescein-SRC2 peptide, fluorescence polarization, 5 h; series mostly up to 92.2 µM.
Method in brief: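 Concentration-response qHTS: compound was added to 0.6 uM TRbeta LBD and 20 nM fluorescein-labeled SRC2 20-mer, with 1 uM T3 present, and incubated 5 h at ambient temperature. A fall in polarization (480/535 nm) marks inhibition, normalized to unbound and bound controls.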

For `Cn1c(CCN2CCCCC2)nc2cc(NS(=O)(=O)c3ccc(Cl)cc3)ccc21`, which activity, negative = inhibition is on record?
Its activity, negative = inhibition is inactive: -6.74% [at 0.0112 µM].

How did the Potency turn out when `Cc1cccc(Cn2c(C(=O)OC(C)C)cc3c2ccn3C)c1` was run?
The Potency was inconclusive: 0.0224 µM [activator, full curve, poor fit].

How did the Potency turn out when `COc1ccc(CN2C(=O)Cc3c2nc(N)c2c(N)nc(N4CCCCC4)c(C#N)c32)cc1` was run?
Its Potency is inconclusive: 6.31 µM [activator, full curve].

For `N/C(Cc1cccc2ccccc12)=N\OC(=O)c1cccs1`, which activity, negative = inhibition is on record?
The activity, negative = inhibition was inactive: -6.32% [at 5.76 µM].

How did the Potency turn out when `CN1CCc2ccc3c4c2[C@]1(C)Cc1cccc(c1-4)OCO3` was run?
The Potency was active: 44.7 µM.

Which activity, negative = inhibition does the source give for `CN(CCO)c1nc(N)c2c(N)nc3c(c2c1C#N)CC(=O)N3C1CCCC1` here?
Its activity, negative = inhibition is inactive: -0.749% [at 11.6 µM].

How did the Potency turn out when `COC(=O)c1ccccc1-c1ccc(C(c2c(C)[nH][nH]c2=O)c2c(C)[nH][nH]c2=O)o1` was run?
Its Potency is inconclusive: 35.5 µM [inhibitor, full curve].

For `CC1=NN(Cc2ccccc2)C(=O)C1`, which Potency is on record?
The Potency was “inactive”.

With `C=CCNC(=O)/C(C#N)=C\c1cc(Cl)c(OCC)c(OC)c1` as the compound, how does the Potency read?
Its Potency is inconclusive: 31.6 µM [inhibitor, partial curve, poor fit].

With `CN1c2ccccc2C(C)(C)C12C=Nc1c(cc(N3CCOCC3)c3ccccc13)O2` (stereo not drawn) as the compound, how does the Potency read?
The Potency was inconclusive: 31.6 µM [inhibitor, full curve, poor fit].

Which Potency does the source give for `O=C(NNc1cc(N2CCOCC2)nc(N2CCOCC2)n1)c1ccc([N+](=O)[O-])cc1` here?
Its Potency is inconclusive: 3.16 µM [inhibitor, partial curve, poor fit].

For `Cc1[nH][nH]c(=O)c1C(c1ccc(-c2ccccc2C(=O)O)o1)c1c(C)[nH][nH]c1=O`, which Potency is on record?
Its Potency is inconclusive: 12.6 µM [inhibitor, full curve].

How did the Potency turn out when `CCOc1cc(C(c2c(C)[nH][nH]c2=O)c2c(C)[nH][nH]c2=O)ccc1OC(=O)c1cccc([N+](=O)[O-])c1` was run?
The Potency was active: 15.8 µM.

For `Cc1ccc(-c2nc(S(=O)(=O)c3ccc(F)cc3)c(SCC(=O)NCC3CCCO3)o2)cc1` (stereo not drawn), which Potency is on record?
Its Potency is “inactive”.

Which Potency does the source give for `CCC(C)NC(=O)COC(=O)c1csc2c1CCCC2` (stereo not drawn) here?
The Potency was inconclusive: 0.631 µM [inhibitor, full curve, poor fit].

For `C=CCSc1nnc2n(-c3ccccc3OC)c(=O)c3c4c(sc3n12)CCC4`, which Potency is on record?
Its Potency is “inactive”.

How did the Potency turn out when `CCOC(=O)c1cnc2nc(NCc3ccc(OC)c(OC)c3)[nH]n2c1=O` was run?
The Potency was “inactive”.

With `O=c1[nH]c(Nc2ccc(F)cc2)cc2ccccc12` as the compound, how does the Potency read?
The Potency was inconclusive: 7.94 µM [inhibitor, full curve].

For `CCOc1ccc(NC(=O)C(c2ccccn2)N(C(=O)CCl)c2ccc(F)cc2)cc1` (stereo not drawn), which Potency is on record?
The Potency was inconclusive: 79.4 µM [inhibitor, single point].

With `CN(C)c1cc(Cl)c2nonc2c1N` as the compound, how does the Potency read?
Its Potency is inconclusive: 25.1 µM [inhibitor, partial curve].

For `O=C(O)/C=C/C(=O)Nc1ccc(SC(F)(F)C(F)(F)C(F)(F)F)cc1`, which Potency is on record?
Its Potency is active: 4.47 µM.

How did the Potency turn out when `CN(C(=S)Nc1cccnc1)c1ccc(O)cc1` was run?
The Potency was “inactive”.

Which Potency does the source give for `CCOc1ccc(C2=Cc3cc(OC)c(OC)cc3C(=C(Cl)Cl)O2)cc1` here?
Its Potency is “inactive”.

Which Potency does the source give for `Nc1cnccc1C(=O)O` here?
The Potency was inconclusive: 44.7 µM [inhibitor, partial curve, poor fit].

Which Potency does the source give for `Nc1cc(-c2ccncc2)c[nH]c1=O` here?
Its Potency is inconclusive: 31.6 µM [inhibitor, full curve, poor fit] and inactive.

With `Cc1nc2c3cc(F)ccc3n(Cc3ccccc3F)c2s1` as the compound, how does the Potency read?
The Potency was “inactive”.

`COc1ccc(C(=O)/C=C/Nc2ccc(S(=O)(=O)Nc3ncccn3)cc2)cc1` was tested. Which Potency did it give?
Its Potency is inconclusive: 0.0006 µM [inhibitor].

`O=C1CCCC(O)=C1N=Nc1cccc(S(=O)(=O)N2CCOCC2)c1` was tested. Which Potency did it give?
The Potency was inconclusive: 0.0014 µM [activator, full curve, poor fit].
